This is one part of the list. Repeats are few or missing, and single values can be far off.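 Test system: a mixed pool of 41 HAP1 clones in which 61 cancer-associated proteins carry fluorescent tags inserted into introns, and each clone is identified from its image pattern. Read-outs are compared with DMSO-treated control wells. The BRD4 degrader dBET6 served as the positive control.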

By UniProt entry, the sequences of proteins in these tests, tags left out.
UniProt O14980, whole entry: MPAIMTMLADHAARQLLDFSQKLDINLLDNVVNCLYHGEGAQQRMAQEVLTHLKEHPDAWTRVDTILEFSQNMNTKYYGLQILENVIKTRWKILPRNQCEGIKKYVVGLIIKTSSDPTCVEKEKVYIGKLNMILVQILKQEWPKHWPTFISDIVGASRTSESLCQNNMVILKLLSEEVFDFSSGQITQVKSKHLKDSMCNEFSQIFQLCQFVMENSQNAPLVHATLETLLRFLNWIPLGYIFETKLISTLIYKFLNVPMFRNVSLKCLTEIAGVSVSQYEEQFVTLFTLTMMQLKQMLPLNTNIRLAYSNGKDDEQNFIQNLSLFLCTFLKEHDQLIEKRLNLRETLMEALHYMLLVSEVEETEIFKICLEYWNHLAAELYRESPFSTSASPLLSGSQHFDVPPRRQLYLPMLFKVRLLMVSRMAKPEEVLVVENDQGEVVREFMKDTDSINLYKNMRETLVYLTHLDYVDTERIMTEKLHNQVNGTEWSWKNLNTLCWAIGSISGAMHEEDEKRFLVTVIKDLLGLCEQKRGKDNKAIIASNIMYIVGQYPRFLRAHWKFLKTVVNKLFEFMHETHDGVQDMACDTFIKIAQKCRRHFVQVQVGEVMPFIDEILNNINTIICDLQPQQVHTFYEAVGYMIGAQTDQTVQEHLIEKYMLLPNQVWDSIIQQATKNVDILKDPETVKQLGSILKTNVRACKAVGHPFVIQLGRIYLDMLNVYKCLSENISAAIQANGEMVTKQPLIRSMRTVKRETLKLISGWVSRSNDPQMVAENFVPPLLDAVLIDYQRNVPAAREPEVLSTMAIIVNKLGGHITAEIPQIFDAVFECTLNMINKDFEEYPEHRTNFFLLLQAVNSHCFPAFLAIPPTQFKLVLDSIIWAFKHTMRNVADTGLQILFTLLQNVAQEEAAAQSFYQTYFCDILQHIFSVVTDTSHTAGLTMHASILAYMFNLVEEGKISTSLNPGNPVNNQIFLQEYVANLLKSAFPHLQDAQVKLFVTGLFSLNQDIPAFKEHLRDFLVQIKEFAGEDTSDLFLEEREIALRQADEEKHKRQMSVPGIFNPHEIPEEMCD

This experiment has as its target XPO1 (intron 15 mScarlet tag, HAP1) (UniProt O14980). In words: XPO1 fluorescence intensity change vs DMSO (log2 fold change); higher = more XPO1 protein. Particulars: 6 h.
On to `Nc1nnc(-c2cccc(Cl)c2Cl)c(N)n1` [Lamotrigine] (10 µM), for which the “XPO1 fluorescence intensity change (log2)” value came to 0.162.
The result for `C#C[C@]1(O)CC[C@H]2[C@@H]3CCc4cc(O)ccc4[C@H]3CC[C@@]21C` [Ethinyl Estradiol] (9.99913 µM) reads 0.0595; that for `Cc1ccc(Cl)c(Nc2ccccc2C(=O)O)c1Cl` [Meclofenamate (sodium)] (10 µM), 0.0428.
For `CN(C)C/C=C/C(=O)Nc1cc2c(Nc3ccc(F)c(Cl)c3)ncnc2cc1O[C@H]1CCOC1` [Afatinib] (10 µM), the “XPO1 fluorescence intensity change (log2)” value is 0.243.
The result for `Nc1ccn([C@H]2CC[C@@H](CO)O2)c(=O)n1` [Zalcitabine] (9.9996931 µM) reads 0.116.
The result for `CCCc1nc(C(C)(C)O)c(C(=O)O)n1Cc1ccc(-c2ccccc2-c2nnn[nH]2)cc1` [Olmesartan] (10 µM) reads -0.0325; that for `CO[C@H]1C[C@@H]2CC[C@@H](C)[C@@](O)(O2)C(=O)C(=O)N2CCCC[C@H]2C(=O)O[C@H]([C@H](C)C[C@@H]2CC[C@@H](O)[C@H](OC)C2)CC(=O)[C@H](C)/C=C(\C)[C@@H](O)[C@@H](OC)C(=O)[C@H](C)C[C@H](C)/C=C/C=C/C=C/1C` [Rapamycin] (10 µM), -0.0693; that for `CC(=O)O[C@@]12CO[C@@H]1C[C@H](O)[C@@]1(C)C(=O)[C@H](O)C3=C(C)[C@@H](OC(=O)[C@H](O)[C@@H](NC(=O)OC(C)(C)C)c4ccccc4)C[C@@](O)([C@@H](OC(=O)c4ccccc4)[C@H]21)C3(C)C` [Docetaxel] (0.00463667 µM), 0.0112.
On to `COc1cc(C(=O)NCc2ccc(OCCN(C)C)cc2)cc(OC)c1OC` [Trimethobenzamide] (10 µM), for which the “XPO1 fluorescence intensity change (log2)” value was -0.132.
The figure for `CC(C)C[C@H](NC(=O)[C@@H](Cc1c[nH]c2ccccc12)NC(=O)[C@H](Cc1ccc(O)cc1)NC(=O)[C@H](CO)NC(=O)[C@H](Cc1c[nH]c2ccccc12)NC(=O)[C@H](Cc1c[nH]cn1)NC(=O)[C@@H]1CCC(=O)N1)C(=O)N[C@@H](CCCNC(=N)N)C(=O)N1CCC[C@H]1C(=O)NCC(N)=O` [Triptorelin] (20 µM) is -0.148.
The result for `Cc1ccc(NC(=O)NCc2ccc3c(c2)CN(C2CCC(=O)NC2=O)C3=O)cc1Cl` (stereo unspecified) (1 µM) reads -0.108.
